{"source": "the supplement of paper PMC8728848", "binders": {"B1": {"name": "PX9937I-bfa-538-26-538 (Bacteroides fragilis) (protein)", "chain": "DKLDLSPIDYYGSGSYWKTEAQATAYIDGIHKHLRDAAWQHTITFGELRGGRFITGASSDGMGVSNGDIILQNFDETHTGVSKFGDLFGRITNLNLFIARVTDATYLSDEMKNFYLGEVYGLRAFYYFDLYRIYGGVPLRLTADVVEGVIDPNKLYMARSTPKEVMTQIKSDLNKSMEYFGNMNDFDPYKRGKKVYWSKAATECLMGEVYLWTSKVTTGDDVANPADLTIAKTHLESVLNNYNLKMLDDFSQVFNAKNKANDEIIFAIRFLEGEATNSNGTFTYNVGTGSTKNRYQANGEVFGDALDIQNTGNQTYEYNKAVYQNFDDADTRKEATFIASYNKDGKTGELSLYGTHVRKNIGYVNAQGARVYCGDYIFYRLPWVYLTLAEIANMEGDNAAVAKYINLVRKRAYGNAWDETLYAYPETADFTTNELAILHEKDKEFIQEGQRWWDLRRMTLTKGGTPLVFCKEGSLLGDAPILNKSTEAHKLLWPIEKTMLNKDPALEQTPGYK"}}, "assay_in_all_cases": "glycan array binding signal (z-score within array); higher = stronger binding", "details_in_all_cases": "glycan notation: IUPAC condensed, linker removed", "key": {"[1]": {"molecular_target": "Gal(b1-4)GlcNAc(b1-2)Man(a1-3)[Gal(b1-4)GlcNAc(b1-2)Man(a1-6)]Man(b1-4)GlcNAc(b1-4)[Fuc(a1-6)]GlcNAc", "method_in_brief": "(§1)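 The Consortium for Functional Glycomics database supplied 3228 glycan arrays, of which those lacking an available protein sequence were dropped. The binding signal, a within-array Z-score, was averaged across arrays of the same protein sequence and across linkers. Negative scores can be read as non-binding.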"}, "[2]": {"molecular_target": "Gal(b1-4)GlcNAc(b1-2)Man(a1-3)[Gal(b1-4)GlcNAc(b1-2)Man(a1-6)][Gal(b1-4)GlcNAc(b1-4)]Man(b1-4)GlcNAc(b1-4)[Fuc(a1-6)]GlcNAc", "method_in_brief": "as §1"}, "[3]": {"molecular_target": "Gal(b1-4)GlcNAc(b1-2)Man(a1-3)[Gal(b1-4)GlcNAc(b1-2)Man(a1-6)][GlcNAc(b1-4)]Man(b1-4)GlcNAc(b1-4)[Fuc(a1-6)]GlcNAc", "method_in_brief": "as §1"}, "[4]": {"molecular_target": "Gal(b1-4)GlcNAc(b1-2)Man(a1-3)[GlcNAc(b1-2)Man(a1-6)]Man(b1-4)GlcNAc(b1-4)GlcNAc", "method_in_brief": "as §1"}, "[5]": {"molecular_target": "Gal(b1-4)GlcNAc(b1-2)Man(a1-3)[GlcNAc(b1-4)][Gal(b1-4)GlcNAc(b1-2)Man(a1-6)]Man(b1-4)GlcNAc(b1-4)GlcNAc", "method_in_brief": "as §1"}, "[6]": {"molecular_target": "Gal(b1-4)GlcNAc(b1-2)Man(a1-3)[Man(a1-6)]Man(b1-4)GlcNAc(b1-4)GlcNAc", "method_in_brief": "as §1"}, "[7]": {"molecular_target": "Gal(b1-4)GlcNAc(b1-2)Man(a1-6)Man(b1-4)GlcNAc(b1-4)GlcNAc", "method_in_brief": "as §1"}, "[8]": {"molecular_target": "Gal(b1-4)GlcNAc(b1-2)Man(a1-6)[GlcNAc(b1-2)Man(a1-3)]Man(b1-4)GlcNAc(b1-4)GlcNAc", "method_in_brief": "as §1"}, "[9]": {"molecular_target": "Gal(b1-4)GlcNAc(b1-2)Man(a1-6)[Man(a1-3)]Man(b1-4)GlcNAc(b1-4)GlcNAc", "method_in_brief": "as §1"}, "[10]": {"molecular_target": "Gal(b1-4)GlcNAc(b1-2)[Gal(b1-4)GlcNAc(b1-4)]Man(a1-3)[Gal(b1-4)GlcNAc(b1-2)Man(a1-6)]Man(b1-4)GlcNAc(b1-4)GlcNAc", "method_in_brief": "as §1"}, "[11]": {"molecular_target": "Gal(b1-4)GlcNAc(b1-2)[Gal(b1-4)GlcNAc(b1-4)]Man(a1-3)[Gal(b1-4)GlcNAc(b1-2)[Gal(b1-4)GlcNAc(b1-6)]Man(a1-6)]Man(b1-4)GlcNAc(b1-4)GlcNAc", "method_in_brief": "as §1"}, "[12]": {"molecular_target": "Gal(b1-4)GlcNAc(b1-2)[Gal(b1-4)GlcNAc(b1-4)]Man(a1-3)[GlcNAc(b1-4)][Gal(b1-4)GlcNAc(b1-2)Man(a1-6)]Man(b1-4)GlcNAc(b1-4)GlcNAc", "method_in_brief": "as §1"}, "[13]": {"molecular_target": "Gal(b1-4)GlcNAc(b1-2)[Gal(b1-4)GlcNAc(b1-4)]Man(a1-3)[GlcNAc(b1-4)][Gal(b1-4)GlcNAc(b1-2)[Gal(b1-4)GlcNAc(b1-6)]Man(a1-6)]Man(b1-4)GlcNAc(b1-4)GlcNAc", "method_in_brief": "as §1"}, "[14]": {"molecular_target": "Gal(b1-4)GlcNAc(b1-2)[Gal(b1-4)GlcNAc(b1-6)]Man(a1-6)[Gal(b1-4)GlcNAc(b1-2)Man(a1-3)]Man(b1-4)GlcNAc(b1-4)GlcNAc", "method_in_brief": "as §1"}, "[15]": {"molecular_target": "Gal(b1-4)GlcNAc(b1-2)[Gal(b1-4)GlcNAc(b1-6)]Man(a1-6)[Gal(b1-4)GlcNAc(b1-2)Man(a1-3)]Man(b1-4)GlcNAc(b1-4)[Fuc(a1-6)]GlcNAc", "method_in_brief": "as §1"}, "[16]": {"molecular_target": "Gal(b1-4)GlcNAc(b1-2)[Gal(b1-4)GlcNAc(b1-6)]Man(a1-6)[GlcNAc(b1-4)][Gal(b1-4)GlcNAc(b1-2)Man(a1-3)]Man(b1-4)GlcNAc(b1-4)GlcNAc", "method_in_brief": "as §1"}, "[17]": {"molecular_target": "Gal(b1-4)GlcNAc(b1-2)[Gal(b1-4)GlcNAc(b1-6)]Man(a1-6)[GlcNAc(b1-4)][Gal(b1-4)GlcNAc(b1-2)[Gal(b1-4)GlcNAc(b1-4)]Man(a1-3)]Man(b1-4)GlcNAc(b1-4)[Fuc(a1-6)]GlcNAc", "method_in_brief": "as §1"}, "[18]": {"molecular_target": "Gal(b1-4)GlcNAc(b1-3)Gal(b1-3)GalNAc", "method_in_brief": "as §1"}, "[19]": {"molecular_target": "Gal(b1-4)GlcNAc(b1-3)Gal(b1-3)GlcNAc", "method_in_brief": "as §1"}}, "note": "The other results are listed elsewhere or left out."}
{"binder": "B1", "values": [{"measurement": "glycan array binding signal (z-score)", "setting": "[1]", "result": 0.387}, {"measurement": "glycan array binding signal (z-score)", "setting": "[2]", "result": 1.11}, {"measurement": "glycan array binding signal (z-score)", "setting": "[3]", "result": -1.18}, {"measurement": "glycan array binding signal (z-score)", "setting": "[4]", "result": 0.247}, {"measurement": "glycan array binding signal (z-score)", "setting": "[5]", "result": -0.423}, {"measurement": "glycan array binding signal (z-score)", "setting": "[6]", "result": -0.677}, {"measurement": "glycan array binding signal (z-score)", "setting": "[7]", "result": -1.03}, {"measurement": "glycan array binding signal (z-score)", "setting": "[8]", "result": -0.37}, {"measurement": "glycan array binding signal (z-score)", "setting": "[9]", "result": -0.348}, {"measurement": "glycan array binding signal (z-score)", "setting": "[10]", "result": -0.115}, {"measurement": "glycan array binding signal (z-score)", "setting": "[11]", "result": -0.654}, {"measurement": "glycan array binding signal (z-score)", "setting": "[12]", "result": -0.233}, {"measurement": "glycan array binding signal (z-score)", "setting": "[13]", "result": 0.62}, {"measurement": "glycan array binding signal (z-score)", "setting": "[14]", "result": 1.12}, {"measurement": "glycan array binding signal (z-score)", "setting": "[15]", "result": 2.24}, {"measurement": "glycan array binding signal (z-score)", "setting": "[16]", "result": -0.361}, {"measurement": "glycan array binding signal (z-score)", "setting": "[17]", "result": -0.531}, {"measurement": "glycan array binding signal (z-score)", "setting": "[18]", "result": 0.655}, {"measurement": "glycan array binding signal (z-score)", "setting": "[19]", "result": -0.581}]}
